Experimental data published in PMC11164896.
No constants are given. Whether binding was seen depends on the method and setting. Binding seen in cells or lysates may run through a third protein. Some binding calls cover weakened binding; strength is not graded here. For some of these results: Where a sequence is shown, tags or fusion partners need not be part of it.

T1: Myocardin-related transcription factor A (MRTF-A), overexpressed from adenovirus Ad-h-MKL1/eGFP (human) (UniProt Q969V6)
T1 sequence: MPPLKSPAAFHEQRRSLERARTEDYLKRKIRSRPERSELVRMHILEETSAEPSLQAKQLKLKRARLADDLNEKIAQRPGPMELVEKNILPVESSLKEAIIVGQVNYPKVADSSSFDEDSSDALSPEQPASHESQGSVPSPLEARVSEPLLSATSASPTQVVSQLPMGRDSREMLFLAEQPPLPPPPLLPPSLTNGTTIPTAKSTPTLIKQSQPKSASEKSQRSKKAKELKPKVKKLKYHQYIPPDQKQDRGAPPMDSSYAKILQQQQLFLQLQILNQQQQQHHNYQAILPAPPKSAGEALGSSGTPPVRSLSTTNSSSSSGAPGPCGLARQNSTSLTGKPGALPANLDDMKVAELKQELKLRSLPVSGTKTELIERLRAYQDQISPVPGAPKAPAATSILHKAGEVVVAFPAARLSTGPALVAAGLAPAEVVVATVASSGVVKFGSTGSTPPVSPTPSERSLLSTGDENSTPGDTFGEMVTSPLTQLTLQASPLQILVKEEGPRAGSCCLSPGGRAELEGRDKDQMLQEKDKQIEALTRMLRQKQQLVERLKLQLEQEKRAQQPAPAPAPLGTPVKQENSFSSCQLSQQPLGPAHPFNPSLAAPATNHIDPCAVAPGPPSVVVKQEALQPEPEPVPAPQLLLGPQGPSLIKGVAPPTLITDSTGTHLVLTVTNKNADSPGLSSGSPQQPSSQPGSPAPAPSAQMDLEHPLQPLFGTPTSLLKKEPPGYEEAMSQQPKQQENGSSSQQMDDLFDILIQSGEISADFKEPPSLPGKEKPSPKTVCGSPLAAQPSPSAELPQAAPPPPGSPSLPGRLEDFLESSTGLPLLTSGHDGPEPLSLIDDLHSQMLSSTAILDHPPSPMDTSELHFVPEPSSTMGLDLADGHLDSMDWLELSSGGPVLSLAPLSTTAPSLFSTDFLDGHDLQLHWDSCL

T2: Myocardin-related transcription factor A (MRTF-A), endogenous in null-virus-transduced cells (human (endogenous in human coronary artery SMCs)) (UniProt Q969V6)
T2 sequence: T1 sequence

B1: Serum response factor (SRF) (protein, UniProt P11831 1-508)
chain: MLPTQAGAAAALGRGSALGGSLNRTPTGRPGGGGGTRGANGGRVPGNGAGLGPGRLEREAAAAAATTPAPTAGALYSGSEGDSESGEEEELGAERRGLKRSLSEMEIGMVVGGPEASAAATGGYGPVSGAVSGAKPGKKTRGRVKIKMEFIDNKLRRYTTFSKRKTGIMKKAYELSTLTGTQVLLLVASETGHVYTFATRKLQPMITSETGKALIQTCLNSPDSPPRSDPTTDQRMSATGFEETDLTYQVSESDSSGETKDTLKPAFTVTNLPGTTSTIQTAPSTSTTMQVSSGPSFPITNYLAPVSASVSPSAVSSANGTVLKSTGSGPVSSGGLMQLPTSFTLMPGGAVAQQVPVQAIQVHQAPQQASPSRDSSTDLTQTSSSGTVTLPATIMTSSVPTTVGGHMMYPSPHAVMYAPTSGLGDGSLTVLNAFSQAPSTMQVSHSQVQEPGGVPQVFLTASSGTVQIPVSAVQLHQMAVIGQQAGSSSNLTELQVVNLDTAHSTKSE
B2: TANK-binding kinase 1 (TBK1), total (enzyme, UniProt Q9UHD2 1-729)
chain: MQSTSNHLWLLSDILGQGATANVFRGRHKKTGDLFAIKVFNNISFLRPVDVQMREFEVLKKLNHKNIVKLFAIEEETTTRHKVLIMEFCPCGSLYTVLEEPSNAYGLPESEFLIVLRDVVGGMNHLRENGIVHRDIKPGNIMRVIGEDGQSVYKLTDFGAARELEDDEQFVSLYGTEEYLHPDMYERAVLRKDHQKKYGATVDLWSIGVTFYHAATGSLPFRPFEGPRRNKEVMYKIITGKPSGAISGVQKAENGPIDWSGDMPVSCSLSRGLQVLLTPVLANILEADQEKCWGFDQFFAETSDILHRMVIHVFSLQQMTAHKIYIHSYNTATIFHELVYKQTKIISSNQELIYEGRRLVLEPGRLAQHFPKTTEENPIFVVSREPLNTIGLIYEKISLPKVHPRYDLDGDASMAKAITGVVCYACRIASTLLLYQELMRKGIRWLIELIKDDYNETVHKKTEVVITLDFCIRNIEKTVKVYEKLMKINLEAAELGEISDIHTKLLRLSSSQGTIETSLQDIDSRLSPGGSLADAWAHQEGTHPKDRNVEKLQVLLNCMTEIYYQFKKDKAERRLAYNEEQIHKFDKQKLYYHATKAMTHFTDECVKKYEAFLNKSEEWIRKMLHLRKQLLSLTNQCFDIEEEVSKYQEYTNELQETLPQKMFTASSGIKHTMTPIYPSSNTLVEMTLGMKKLKEEMEGVVKELAENNHILERFGSLTMDGGLRNVDCL
B3: Phosphorylated TANK-binding kinase 1 (p-TBK1, Ser172) (enzyme, UniProt Q9UHD2 1-729)
chain: B2 chain
modifications: phosphoserine at 172 (p-TBK1, Ser172)

What was measured:
[1] = target: T1, Myocardin-related transcription factor A (MRTF-A), overexpressed from adenovirus Ad-h-MKL1/eGFP (human); test: co-IP; anti-MRTF-A antibody coupled to AminoLink Plus resin (Pierce Co-IP kit), inactive control resin as control; pre-cleared lysates (~0.5 mg protein) of human coronary artery SMCs transduced with MRTF-A for 4 or 8 days, overnight at 4 °C; eluates read by dot blot; also cells treated with 100 nM jasplakinolide for the last 24 h
[2] = target: T2, Myocardin-related transcription factor A (MRTF-A), endogenous in null-virus-transduced cells (human (endogenous in human coronary artery SMCs)); test: proximity ligation; Duolink in situ PLA on fixed, permeabilised human coronary artery SMCs after 4 days of null or MRTF-A virus; antibody pairs TBK1 + MRTF-A and P-TBK1 + MRTF-A; puncta mark proteins within 40 nm
[3] = target: T1, Myocardin-related transcription factor A (MRTF-A), overexpressed from adenovirus Ad-h-MKL1/eGFP (human); test: as above

Row | Binder | binding [1] | binding [2] | binding [3]
1 | B1 | binds |  | 
2 | B2 | binds | binds | binds
3 | B3 | binds | binds | binds
